Results published in patent US20220228203.
Construct, isoform or probe ends are uncertain for at least one entry.

Sequences of proteins named here, by UniProt entry; tags and fusion partners are left off. A change or cut given only in a name is not applied to a line headed by its entry.
UniProt Q46731: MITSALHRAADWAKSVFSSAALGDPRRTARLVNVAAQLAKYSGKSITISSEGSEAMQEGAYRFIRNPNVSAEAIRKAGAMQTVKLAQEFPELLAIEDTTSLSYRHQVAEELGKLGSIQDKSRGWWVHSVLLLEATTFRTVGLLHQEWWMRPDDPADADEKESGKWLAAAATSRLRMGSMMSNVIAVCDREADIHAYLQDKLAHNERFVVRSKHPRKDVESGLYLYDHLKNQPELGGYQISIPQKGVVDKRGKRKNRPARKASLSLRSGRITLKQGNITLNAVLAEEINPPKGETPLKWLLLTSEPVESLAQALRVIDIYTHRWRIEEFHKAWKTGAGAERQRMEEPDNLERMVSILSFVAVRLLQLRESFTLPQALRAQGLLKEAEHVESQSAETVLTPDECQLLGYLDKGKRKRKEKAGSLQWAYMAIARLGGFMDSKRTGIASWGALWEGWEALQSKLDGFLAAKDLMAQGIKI

Molecular target: Protein A-Tn5 transposase fusion (pA-Tn5, hyperactive Tn5) (UniProt Q46731)
Assay: activity assay
Conditions: 5'-phosphate on mosaic end reverse; loaded transposome tagments chromatin in permeabilized K562 cells; Mg2+, 37 C; purified recombinant protein; protein details: Protein A fusion

Sequence | activity on this sequence
TCGTCGGCAGCGTCAGATGTGTATAAGAGACAG / CTGTCTCTTATACACATCT [Mosaic end adapter A / mosaic end reverse] | active
GTCTCGTGGGCTCGGAGATGTGTATAAGAGACAG / CTGTCTCTTATACACATCT [Mosaic end adapter B / mosaic end reverse] | active
